This note sets out measurements from paper PMC6683157.

Sequences of proteins named here, by UniProt entry; tags and fusion partners are left off.
UniProt P27695: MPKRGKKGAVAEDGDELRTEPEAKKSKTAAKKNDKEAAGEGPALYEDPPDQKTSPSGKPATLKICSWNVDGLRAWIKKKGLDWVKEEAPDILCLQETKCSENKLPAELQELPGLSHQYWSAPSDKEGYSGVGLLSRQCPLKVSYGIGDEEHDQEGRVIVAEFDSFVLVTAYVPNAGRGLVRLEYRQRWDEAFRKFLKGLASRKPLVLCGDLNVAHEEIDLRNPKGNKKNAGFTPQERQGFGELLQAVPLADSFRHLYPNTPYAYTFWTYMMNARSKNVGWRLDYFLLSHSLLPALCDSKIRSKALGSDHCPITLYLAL

These are yes or no findings as the source states them, for the method shown. Some entries that bind do so weakly or less than the wild type. For some of these results: Tags and fused reporters may be left off the sequences shown.

Assay [1] concerns the target T1, Csm2-Psy3 heterodimer (S. cerevisiae) (UniProt P40465+Q12318).
T1 sequence 1: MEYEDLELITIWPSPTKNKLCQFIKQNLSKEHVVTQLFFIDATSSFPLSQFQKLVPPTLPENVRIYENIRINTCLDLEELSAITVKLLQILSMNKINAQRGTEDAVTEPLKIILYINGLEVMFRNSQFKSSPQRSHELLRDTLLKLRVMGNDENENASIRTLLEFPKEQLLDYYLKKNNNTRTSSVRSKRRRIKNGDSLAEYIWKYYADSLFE
T1 sequence 2: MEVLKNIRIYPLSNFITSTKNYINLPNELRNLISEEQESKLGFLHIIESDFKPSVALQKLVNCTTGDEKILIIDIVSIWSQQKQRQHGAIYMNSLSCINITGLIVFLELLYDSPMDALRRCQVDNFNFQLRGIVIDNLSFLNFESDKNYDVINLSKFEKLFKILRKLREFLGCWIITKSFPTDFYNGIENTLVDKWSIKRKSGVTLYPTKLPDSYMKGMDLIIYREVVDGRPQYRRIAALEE
The assay is described as follows: pull-down; 25 μL Ni beads with 1 μM APE1 and 1 μM Csm2-Psy3; 20 mM Tris pH 8.0, 50 mM NaCl, 5 mM MgOAc2, 5% glycerol, 1 mM DTT, 2 mM ATP, 0.5 mg/mL BSA; overnight at 4 °C; SDS-PAGE; both purified.

The target in assay [2] is T2, Csm2 (6XHIS-TEV tagged, co-expressed with Psy3) (S. cerevisiae) (UniProt P40465).
T2 sequence: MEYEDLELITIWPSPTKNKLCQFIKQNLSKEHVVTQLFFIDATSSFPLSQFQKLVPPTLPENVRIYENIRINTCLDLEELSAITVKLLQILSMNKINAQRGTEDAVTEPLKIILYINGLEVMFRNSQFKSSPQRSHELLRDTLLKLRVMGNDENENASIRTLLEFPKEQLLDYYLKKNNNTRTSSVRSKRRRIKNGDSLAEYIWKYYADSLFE
Description: SEC; Sephacryl S200; Tris pH 8.0, 1 M NaCl, 1 mM beta-mercaptoethanol, 8% glycerol; co-purified complex, peak checked by SDS-PAGE; both purified. On the technique in general: SEC sorts molecules by how far they enter the pores of the column.

Assay [3] deals with T3, Csm2-KRRR (Csm2-K189A/R190A/R191A/R192A, 6XHIS-TEV tagged) (S. cerevisiae) (UniProt P40465).
T3 sequence: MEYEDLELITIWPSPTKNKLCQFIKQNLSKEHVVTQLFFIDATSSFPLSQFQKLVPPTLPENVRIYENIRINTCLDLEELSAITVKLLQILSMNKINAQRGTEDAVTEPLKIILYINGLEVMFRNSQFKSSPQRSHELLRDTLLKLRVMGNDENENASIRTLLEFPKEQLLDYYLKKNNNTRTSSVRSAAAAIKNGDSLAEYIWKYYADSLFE
Described as above.

Assay [4] addresses T2, Csm2 (6XHIS-TEV tagged, co-expressed with Psy3) (S. cerevisiae). The assay is described as follows: co-purification (nickel affinity chromatography); Csm2 and Psy3 co-expressed in E. coli; lysate on nickel resin, held by the N-terminal His6-tag on Csm2; 20 mM Tris pH 8.0, 500 mM NaCl, washes with 10, 15 and 20 mM imidazole, elution with 250 mM imidazole.
The target of assay [5] is T3, Csm2-KRRR (Csm2-K189A/R190A/R191A/R192A, 6XHIS-TEV tagged) (S. cerevisiae). Described as above.
Assay [6] concerns the target T4, 6XHIS-Shu1 (S. cerevisiae) (UniProt P38751).
T4 sequence: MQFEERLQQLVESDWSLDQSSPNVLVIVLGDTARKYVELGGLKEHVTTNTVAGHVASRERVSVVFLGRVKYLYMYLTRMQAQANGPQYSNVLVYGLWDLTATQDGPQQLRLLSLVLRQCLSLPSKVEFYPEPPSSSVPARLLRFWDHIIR
The assay is described as follows: SEC; SuperDex 200 in buffer with 150 mM KCl, after Ni-NTA and amylose resin; 6XHIS-Shu1 and MBP-Shu2 co-expressed in E. coli; both purified.

“human APE1 (from UniProt P27695 1-318) (enzyme)”: the binding result in assay [1] is “no binding (tested: 1 μM of APE1 and 1 μM Csm2-Psy3)”.

B1: Psy3 (co-expressed with His6-Csm2) (protein, UniProt Q12318 1-242)
chain: MEVLKNIRIYPLSNFITSTKNYINLPNELRNLISEEQESKLGFLHIIESDFKPSVALQKLVNCTTGDEKILIIDIVSIWSQQKQRQHGAIYMNSLSCINITGLIVFLELLYDSPMDALRRCQVDNFNFQLRGIVIDNLSFLNFESDKNYDVINLSKFEKLFKILRKLREFLGCWIITKSFPTDFYNGIENTLVDKWSIKRKSGVTLYPTKLPDSYMKGMDLIIYREVVDGRPQYRRIAALEE
Regarding B1, the binding result in assay [2], in assay [3], in assay [4] and in assay [5] was “binds” in each case.

B2: Psy3-KRK (Psy3-K199A/R200A/K201A) (protein, UniProt Q12318 1-242)
chain: MEVLKNIRIYPLSNFITSTKNYINLPNELRNLISEEQESKLGFLHIIESDFKPSVALQKLVNCTTGDEKILIIDIVSIWSQQKQRQHGAIYMNSLSCINITGLIVFLELLYDSPMDALRRCQVDNFNFQLRGIVIDNLSFLNFESDKNYDVINLSKFEKLFKILRKLREFLGCWIITKSFPTDFYNGIENTLVDKWSIAAASGVTLYPTKLPDSYMKGMDLIIYREVVDGRPQYRRIAALEE
Regarding B2, the binding entry in assay [2], in assay [3], in assay [4] and in assay [5] was “binds” each time.

B3: MBP-Shu2 (protein, UniProt P38957 1-223)
chain: MSKDVIEYSKLFAKLVNTNDDTKLDDTIASFLYYMFPRELFIRAISLLESSDMFIYILDRVHNKEGNEHTSLIDVLVDEFYKGSSNSLLEYRLIVKDTNDGAPPILVDIAHWFCSCEEFCKYFHEALEKTDEKEELHDVLINEVDDHLQFSDDRFAQLDPHSLSKQWYFKFDKVCCSHLLAFSILLRSSINVLKFFTVNSNKVFVIAIDNIDEWLNLHINIVE
Consider B3, for which, in assay [6], the binding result is on record as “binds”.
